This experiment concerns the target FLAG-FOXP3 (human) (UniProt Q9BZS1). The experiment in a line: affinity purification with mass spectrometry; 293T transfected with FLAG-Foxp3 or empty vector; high salt lysis buffer (20 mM Tris-Cl pH 7.5, 420 mM NaCl, 1% TritonX-100); anti-FLAG agarose beads overnight at 4°C; SDS-PAGE, silver stain, specific bands cut, LC-MS/MS.

Protein sequences, listed by entry. Tags and fused reporters are not part of them. Residues count along the entry.
UniProt Q9BZS1, residues 1-417: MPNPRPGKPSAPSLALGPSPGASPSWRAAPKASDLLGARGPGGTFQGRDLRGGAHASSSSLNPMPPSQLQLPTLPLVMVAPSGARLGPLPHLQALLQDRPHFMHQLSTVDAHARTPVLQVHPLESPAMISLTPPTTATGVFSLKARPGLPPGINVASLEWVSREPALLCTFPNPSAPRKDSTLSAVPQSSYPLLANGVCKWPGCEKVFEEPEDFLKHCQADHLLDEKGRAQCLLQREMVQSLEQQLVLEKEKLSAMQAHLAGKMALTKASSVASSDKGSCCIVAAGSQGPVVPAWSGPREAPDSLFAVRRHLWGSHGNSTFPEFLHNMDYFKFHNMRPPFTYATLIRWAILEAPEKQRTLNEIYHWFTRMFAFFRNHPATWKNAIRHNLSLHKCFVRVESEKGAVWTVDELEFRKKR
UniProt O14744: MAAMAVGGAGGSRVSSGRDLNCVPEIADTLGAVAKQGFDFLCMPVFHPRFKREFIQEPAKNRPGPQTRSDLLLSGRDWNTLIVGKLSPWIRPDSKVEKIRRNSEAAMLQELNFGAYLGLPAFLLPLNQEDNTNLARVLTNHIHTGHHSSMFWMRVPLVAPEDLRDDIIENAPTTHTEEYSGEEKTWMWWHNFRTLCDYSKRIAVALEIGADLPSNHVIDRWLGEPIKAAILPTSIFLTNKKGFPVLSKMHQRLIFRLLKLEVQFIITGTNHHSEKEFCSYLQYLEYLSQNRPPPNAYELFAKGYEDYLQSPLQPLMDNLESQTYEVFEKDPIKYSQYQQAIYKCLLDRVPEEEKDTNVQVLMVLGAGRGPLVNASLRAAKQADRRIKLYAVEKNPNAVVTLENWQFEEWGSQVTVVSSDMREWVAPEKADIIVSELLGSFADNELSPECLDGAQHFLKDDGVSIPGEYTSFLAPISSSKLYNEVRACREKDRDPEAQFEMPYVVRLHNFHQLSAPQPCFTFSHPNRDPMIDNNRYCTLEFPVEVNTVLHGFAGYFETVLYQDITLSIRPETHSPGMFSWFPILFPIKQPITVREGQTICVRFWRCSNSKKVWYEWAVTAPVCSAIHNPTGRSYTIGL

These are yes or no findings as the source states them, for the method shown. Binding seen in cells or lysates may run through a third protein. Here binding means that the protein was enriched with, or labelled near, the bait; the list need not be complete.

Regarding “protein arginine methyltransferase (PRMT5), endogenous in 293T cells (from UniProt O14744 1-637) (enzyme)”, the binding entry is listed as “binds”.
